{"sequences": {"note": "Amino acid sequences for entries named in this document (tags omitted). Residues count along the entry.", "UniProt Q9UMX5, 32-172, species assumed": "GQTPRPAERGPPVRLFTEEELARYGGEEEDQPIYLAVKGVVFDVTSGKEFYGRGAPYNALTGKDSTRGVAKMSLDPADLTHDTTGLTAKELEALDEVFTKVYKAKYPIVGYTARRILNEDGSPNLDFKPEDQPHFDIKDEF"}, "source": "patent US10168342B2", "about": "“Lipid probes and uses thereof” (THE SCRIPPS RESEARCH INSTITUTE, priority 2015, dated 2019)", "target": "T1, NENF (Homo sapiens, UniProt Q9UMX5)", "T1 construct": "Full-length cDNAs encoding for the each protein of interest were subcloned into pcDNA3.1 myc-His A; Myc (myc-His of pcDNA3.1 myc-His A); expressed in transfected cells; host or cells: HEK293T (lysates)", "test": "In vitro gel-based competition of AEA-DA probe labeling of NENF", "type": "binding", "details": "competitors 1-100 μM, NENF-transfected HEK293T lysates", "method": "Full-length cDNAs encoding for the each protein of interest were subcloned into pcDNA3.1 myc-His A (Invitrogen) or used directly for transfections if available in a eukaryotic expression vector. HEK293T cells were grown to ˜70% confluence under standard growth conditions before adding the appropriate cDNA [control cells (“mock”) received an equal amount of empty pcDNA3.1 myc-His A vector] and FuGENE 6 or X-tremeGENE HP (Roche) transfection reagent according to the manufacturer's instructions. Cells were incubated for 36-48 hours before labeling in situ or harvesting for in vitro experiments.\nCell lysates (1.0 mg/mL), the indicated lipid probe (2.5 or 5 μM) and, for recombinant NUCB1 competition experiments, purified hNUCB1 (250 nM) and CaCl2 (100 μM) were mixed on ice. […] The samples were then irradiated with UV light and subjected to previously described click chemistry conditions. As before, each reaction was quenched with 4×SDS loading buffer (17 μL), and proteins were resolved using SDS-PAGE (10% acrylamide gel) and analyzed by in-gel fluorescent scanning on a Hitachi FMBIO-II flatbed fluorescence scanner. NUCB1 competition was quantitatively assessed by measuring the fluorescent intensity of the corresponding gel band using ImageJ 1.48v and normalizing this value by a non-competed gel band to control for loading differences.\nMetabolite data are shown as mean±SEM (n=3-5/group). […]", "note": "For at least one compound, name, drawing or mass did not settle the structure.", "data": [{"smiles": "C=CC1=C(C)c2cc3[nH]c(cc4nc(cc5[nH]c(cc1n2)c(C)c5CCC(=O)O)C(CCC(=O)O)=C4C)c(C)c3C=C", "note": "[protoporphyrin IX]", "values": [{"measurement": "competition of AEA-DA probe labeling of recombinant NENF", "value": "inhibited in a concentration-dependent manner"}]}]}
